For some assays here: For at least one compound, name, drawing or mass did not settle the structure. Some of these results come from one statement about several compounds together.
Legend:
[1] = test system: Vascular smooth muscle cells (BO54); test: Scratch-migration assay; type: cell-based, baboon; conditions: dose of 0.1 μg/ml
Protocol: Vascular smooth muscle cells (BO54) were derived from explants of baboon aortic smooth muscle, as described in Example 10. The cells were grown in flat bottom, six well tissue culture plates, which hold about 5 ml of medium. The vascular smooth muscle cells were plated at 200,000 cells/well and placed at 37° C. in a humidified 5% CO2 incubator for 18 hours. The wells were then scratched with a sterile portion of a single edge razor blade that was held by clamp or pliers and was brought aseptically into contact with the bottom of the well at a 90° angle. The cells from a small area along the scratch were removed by a sterile cotton tipped applicator while the blade was in contact with the bottom of the well. After incubation, the presence of cells in the “scratched” area is indicative of cell migration across the scratch line.
Briefly, a stock solution of cytochalasin B (Sigma Chemical Co.) in dimethyl sulfoxide (DMSO) at 1 mg/ml was prepared. […]
In this Table, “M” indicates Migration Grade. wherein −=no migration; +1=minimal; +2=mild; +3=moderate; and +4=marked (maximum density; limit of cell contact inhibition) migration of vascular smooth muscle cells into the cleared area adjacent to the scratch. […] The migration results are expressed as “Grade in the Cleared Area of the Well/Grade in an Undisturbed Region of the Well.” The toxicity values represent a grade for all cells in each well.

[2] = test system: target (BO54 and M14) and non-target (HT29) cells; type: cell-based

| Compound | morphological toxicity [1] | concentration at which inhibitory effects were observed (MTT metabolic activity) [2] |
| --- | --- | --- |
| C=C1[C@@H](C)[C@H]2[C@H](Cc3ccccc3)NC(=O)[C@]23OC(=O)/C=C/[C@H](O)CCC[C@@H](C)C/C=C/[C@H]3[C@@H]1O [cytochalasin B] | − to +1 |  |
| Pseudomonas exotoxin [PE] |  | > 100 ng/mL |
